Laboratory results taken from the supplement of paper PMC12578635.
Some of the results follow. Cut-off read from the data, not from the text of the source: active = 150% or more and inactive = the rest. Single values are uncertain, as repeats are few or missing.

Tested on: Staphylococcus aureus JE2-lux inside RAW 264.7 macrophages
Test: intracellular bacterial bioluminescence relative to DMSO vehicle; higher = higher intracellular bacterial metabolic activity
Conditions: 10 µM; treatment time 4 h; gentamicin 50 µg/ml

| SMILES | intracellular bacterial bioluminescence |
| --- | --- |
| CCC(Sc1ccc2nnc(-c3cccnc3)n2n1)C(=O)O (stereo unspecified) | inactive: 94.3% |
| O=C(N/N=C\c1ccco1)c1cc([N+](=O)[O-])cc([N+](=O)[O-])c1 | inactive: 87.7% |
| Cc1nn(-c2ccc(-c3noc(C4CC4)n3)cc2)cc1C(=O)N1CCn2c1nc1ccccc12 | inactive: 114% |
| COc1cc([N+](=O)[O-])cc2sc(NC(=O)CSc3ccc(Cl)cc3)nc12 | inactive: 100% |
| Cc1nn(C(=O)c2cccnc2)c(C)c1Sc1ccccc1[N+](=O)[O-] | inactive: 119% |
| COc1cc(NC(=O)C2(C)CCCO2)ccc1NC(=O)CN1CCOCC1 (stereo unspecified) | inactive: 108% |
| Cc1cc(-c2cn[nH]c2C2CCN(C(=O)c3ccncc3)CC2)on1 | inactive: 86.6% |
| O=C(NC1CCCc2ccccc21)c1cc2n(n1)CCCN(Cc1ccccc1)C2=O (stereo unspecified) | inactive: 113% |
| O=C(COc1ccccc1)Nc1cc(=O)[nH]c(=O)[nH]1 | inactive: 106% |
| O=C(c1ccco1)N1CCN(c2cc(=O)n(Cc3ccc(F)cc3)c(=O)[nH]2)CC1 | inactive: 97.5% |
| Cn1c(=O)[nH]c(=O)c2c1nc(Br)n2Cc1ccc(F)cc1 | inactive: 108% |
| O=C(CCn1c(=S)[nH]c2cc3c(cc2c1=O)OCO3)NCCc1ccc(Cl)cc1 | inactive: 82.2% |
| Cc1ccc(C(c2sc3ncnn3c2O)N2CCOCC2)cc1 (stereo unspecified) | inactive: 94.5% |
| CC1=C(C(=O)OCc2ccccc2)C(c2cccs2)C(C#N)=C(N)O1 (stereo unspecified) | inactive: 114% |
| C=CCOc1ccccc1NC(=O)Cn1c(=O)oc2cc(Cl)ccc21 | inactive: 89.7% |
| COc1ccc(NC(=O)CSc2ncnc3ccccc23)cc1OC | inactive: 20.6% |
| CCOC(=O)c1cccc(NC(=O)CCCc2nc3cccnc3n2Cc2ccc(C)cc2)c1 | inactive: 63.6% |
| COc1ccc(CNC(=O)CSc2nc3ccc(C(C)C)cc3cc2C#N)cc1 | inactive: 93.4% |
| CCc1nnc2ccc(C(=O)N3CCN(CC)CC3)cn12 | inactive: 124% |
| CCn1c(=O)[nH]c2cc(-c3noc(COc4cccc(C)c4)n3)ccc21 | inactive: 16.7% |
| CCCC(=O)N1CCN(c2c(C)n(C)c(=O)n(C)c2=O)CC1 | inactive: 86.8% |
| Cc1ccc(S(=O)(=O)Nc2ccc(N3CCn4c(nc5ccccc54)C3)cc2C)cc1 | inactive: 33% |
| Cn1c(=O)c2c(ncn2CC(=O)c2ccc([N+](=O)[O-])cc2)n(C)c1=O | inactive: 103% |

| SMILES | intracellular bacterial bioluminescence |
| --- | --- |
| N#Cc1c(NC(=O)c2ccc(C(=O)Nc3sc4c(c3C#N)CCCC4)s2)sc2c1CCCC2 | inactive: 118% |
| c1ccc(-c2oc3ncnc(N4CCN(Cc5ccc6c(c5)OCO6)CC4)c3c2-c2ccccc2)cc1 | inactive: 110% |
| Cn1c(=O)c(-c2noc(C(=O)N3CCC(N4CCCCC4)CC3)n2)nn(-c2ccc(F)cc2)c1=O | inactive: 86.6% |
| Cc1ccc(C)c(COc2coc(CSc3nncn3C)cc2=O)c1 | inactive: 93.8% |
| O=C(CSCc1ccccc1)Nc1nc2c(s1)COc1ccccc1-2 | inactive: 52.9% |
| Cc1ccc(NCc2nc3c([nH]2)c(=O)n(C)c(=O)n3C)cc1 | inactive: 102% |
| COc1ccc(NC(=O)c2ncoc2-c2ccc(OC)c(OC)c2)c(OC)n1 | inactive: 96% |
| CN(C)S(=O)(=O)c1ccc(C(=O)NNC(=O)c2ccc3c(c2)CCCC3)cc1 | inactive: 83.5% |
| O=C(NCC1COc2ccccc2O1)C(=O)c1cn(CC(=O)N2CCCCC2)c2ccccc12 (stereo unspecified) | inactive: 94.9% |
| Clc1ccccc1-n1cc(-c2ccccc2)c2c(N3CCCCC3)ncnc21 | inactive: 72.3% |
| Cc1ccc(-n2nnc(C(=O)NCc3ccc(Cl)cc3)c2-n2cccc2)cc1 | inactive: 93.9% |
| CS(=O)(=O)Nc1nc2ccc(NC(=O)c3n[nH]c4c3CCCC4)cc2s1 | inactive: 95.5% |
| Cc1ccc(/C=C2\SC(=S)N(NC(=O)c3ccccc3Br)C2=O)o1 | inactive: 95.2% |
| COc1ccc(-c2cccc(NS(=O)(=O)c3cccc([N+](=O)[O-])c3)c2)nn1 | inactive: 69% |
| COc1cccc(C(c2sc3ncnn3c2O)N2CC(C)CC(C)C2)c1 (stereo unspecified) | inactive: 109% |
| CC(C(=O)NCCn1nc(-c2cccs2)oc1=O)c1ccccc1 (stereo unspecified) | inactive: 98.4% |
| C=CCOc1ccccc1NC(=O)Cn1cnc2sc(C)cc2c1=O | inactive: 20.4% |
| O=C(Nn1cnc2c(cnn2-c2ccccc2)c1=O)c1cc2ccccc2o1 | inactive: 126% |
| CCCc1cc(=O)[nH]c2nnc(SCC(=O)Nc3nc4ccccc4s3)n12 | inactive: 99.9% |
| CN1CCCc2cc(C(CNC(=O)c3ccc4c(c3)OCO4)N3CCCCC3)ccc21 (stereo unspecified) | inactive: 141% |
| N#C/C(=C\c1c(Oc2ccccc2F)nc2ccccn2c1=O)C(N)=O | inactive: 103% |
| O=C(c1cc(-c2ccc3c(c2)OCCO3)on1)N(c1ccccc1)c1ccccc1 | inactive: 34.4% |
| O=C(CSc1nnc(-c2cccnc2)n1-n1cccc1)Nc1ccc(Cl)c(C(F)(F)F)c1 | inactive: 18.8% |

| SMILES | intracellular bacterial bioluminescence |
| --- | --- |
| Cc1cccc(-n2c(SCC(=O)NNC(=O)c3ccco3)nnc2-c2cccnc2)c1C | inactive: 82.7% |
| Cc1nnc(SCC(=O)NCc2ccc3c(c2)OCO3)s1 | inactive: 124% |
| Cc1ccc(NC(=S)N2CCC(NC(=O)c3cccc(F)c3)CC2)cc1C | inactive: 72.8% |
| CN1CCc2c(sc(NC(=O)c3cc4cc([NH+]([O-])O)ccc4s3)c2C(N)=O)C1 (stereo unspecified) | inactive: 56.1% |
| CCOC(=O)c1cc(C)nc2c1c(=O)n(CC(=O)Nc1c(C)cccc1CC)c(=O)n2C | inactive: 65.5% |
| CCOc1ccnc2c1c(=O)n(Cc1cccnc1)c(=O)n2C | inactive: 97.1% |
| CCOc1ccc(-c2cc(C(=O)Oc3cccc(Br)c3)no2)cc1 | inactive: 123% |
| CN(C)CCn1c(=O)c2cnc(-c3ccncc3)nc2n(C)c1=O | inactive: 87.2% |
| CCN1C(=O)/C(=C2\SC(=S)NC2=O)c2cc(Br)ccc21 | inactive: 95.6% |
| N#Cc1ccc(CSc2cnc3ccccc3n2)cc1 | inactive: 63.1% |
| CCOc1ccc(C2CC(=O)Nc3c2cnn3-c2ccc3nncn3n2)cc1OC (stereo unspecified) | inactive: 99% |
| Cc1cccc(NC(=O)CN2CCC3(CC2)NC(=O)c2ccccc2O3)n1 | inactive: 27.1% |
| O=C(CN1CCc2nc(N3CCCC3)[nH]c(=O)c2C1)Nc1cccc(F)c1 | inactive: 102% |
| COc1ccc(CC(=O)NCCc2cn3ccc(C)cc3n2)cc1 | inactive: 101% |
| Cn1c(Sc2ccc3ccccc3n2)nc2c1c(=O)[nH]c(=O)n2C | inactive: 85.2% |
| CCOC(=O)c1ccc(-n2cc(O)c(C(=O)OC)n2)cc1 | inactive: 114% |
| CC1CCN(C(=O)CSc2ccc3nnc(-c4cccc(F)c4)n3n2)CC1 | inactive: 120% |
| C=CCc1cccc2cc(C(N)=O)/c(=N\c3ccc(OC)cc3)oc12 | inactive: 108% |
| O=C(CSc1nnc2c(n1)[nH]c1ccc(Br)cc12)NCc1ccccc1 | inactive: 99.3% |
| COc1cccc(N(C(=O)c2cccs2)C(C(=O)NC2CCCCC2)c2ccc3ncccc3c2)c1 (stereo unspecified) | inactive: 87.9% |
| CCOc1ccc(-c2nc(SCC(=O)NCCC(C)C)n3[nH]c(=O)cc3n2)cc1 | inactive: 104% |
| Cc1ccc(CN2CCC(CNC(=O)c3cn[nH]c3C3CCNCC3)CC2)cc1 | inactive: 98.3% |
| CCc1cccc(CC)c1NC(=O)c1cncc(Br)c1 | inactive: 93.1% |

| SMILES | intracellular bacterial bioluminescence |
| --- | --- |
| O=C(CSc1nc2[nH]ncc2c(=O)n1-c1ccccc1Br)NCc1ccco1 | inactive: 109% |
| CC1=NNC(=O)/C1=N\Nc1ccc(S(=O)(=O)Nc2nc(C)cc(C)n2)cc1 | inactive: 88.7% |
| Cc1cc(C)cc(NC(=O)CN2C(=O)C3(SCC(=O)N3c3ccc(F)cc3)c3ccccc32)c1 (stereo unspecified) | inactive: 118% |
| COc1cccc(C(=O)Nn2c(C3CCC3)nc3ccccc3c2=O)c1 | inactive: 123% |
| Cc1ccc(NS(=O)(=O)c2ccc(Cl)cc2)c(-c2nc3ccccc3[nH]c2=O)c1 | inactive: 73.5% |
| N#Cc1c(N)c(C(=O)c2ccc(Cl)cc2)n2ccccc12 | inactive: 85.6% |
| COc1ccccc1NCN1C(=O)C(=O)c2ccccc21 | inactive: 115% |
| COc1ccc(C(=O)Nc2sc(Cc3ccc4c(c3)OCO4)c(C)c2C#N)cc1 | inactive: 41.3% |
| Cc1cc2cc(CNC(=O)c3ccc([N+](=O)[O-])cc3)ccc2[nH]1 | inactive: 94% |
| Cc1ccc(-c2ccc(/C=C3\SC(=S)N(CC(=O)O)C3=O)o2)cc1 | inactive: 55.3% |
| CCN(CC)c1ccc(C2C3=C(CCCC3=O)Nc3[nH]c(=O)[nH]c(=O)c32)cc1 (stereo unspecified) | active: 157% |
| Cc1ccc(S(=O)(=O)c2nnn3c2nc(NCc2ccc(Cl)cc2)c2ccccc23)c(C)c1 | inactive: 114% |
| COc1ccc(CN(Cc2cc3ccc(C)c(C)c3nc2Cl)C(=O)C2CC2)cc1 | inactive: 70.8% |
| O=C(COc1ccccc1)N1CCC[C@@H]1Cn1nc(-c2cccs2)ccc1=O | inactive: 69% |
| COC(=O)c1c(NC(=O)CCc2ccc(C)o2)sc2c1CCCC2 | inactive: 92.9% |
| COCCCNC(=O)C1CCN(c2ncnc3onc(-c4ccc(C)cc4)c23)CC1 | inactive: 105% |
| O=C(Nc1ccc(-c2nc3cccnc3s2)cc1)c1ccc(Br)o1 | inactive: 83.2% |
| O=C(O)/C=C/c1ccc2c(-c3ccccc3)onc2c1 | inactive: 81.6% |
| Cc1cc(Cl)cc2sc(NC(=O)CN3C(=O)CCC3=O)nc12 | inactive: 24.1% |
| O=C(CSc1nc(O)c2nc[nH]c2n1)N1CCCC1 | inactive: 116% |
| O=C(OC(C(=O)NC1CCCCC1)c1ccc2ncccc2c1)c1cccs1 (stereo unspecified) | inactive: 106% |
| Cc1cc(C)c2nc(NCCNC(=O)c3ccco3)c(C#N)cc2c1 | inactive: 120% |

Not a retest: entries from further up.

| SMILES | intracellular bacterial bioluminescence |
| --- | --- |
| O=C(Nc1ccc(-c2nc3cccnc3s2)cc1)c1ccc(Br)o1 | inactive: 83.2% |
| O=C(O)/C=C/c1ccc2c(-c3ccccc3)onc2c1 | inactive: 81.6% |
| Cc1cc(Cl)cc2sc(NC(=O)CN3C(=O)CCC3=O)nc12 | inactive: 24.1% |
| O=C(CSc1nc(O)c2nc[nH]c2n1)N1CCCC1 | inactive: 116% |
| O=C(OC(C(=O)NC1CCCCC1)c1ccc2ncccc2c1)c1cccs1 (stereo unspecified) | inactive: 106% |
| Cc1cc(C)c2nc(NCCNC(=O)c3ccco3)c(C#N)cc2c1 | inactive: 120% |

Part of the list above, set out differently.
O=C(COc1ccccc1)Nc1cc(=O)[nH]c(=O)[nH]1
  intracellular bacterial bioluminescence: inactive: 106%
O=C(c1ccco1)N1CCN(c2cc(=O)n(Cc3ccc(F)cc3)c(=O)[nH]2)CC1
  intracellular bacterial bioluminescence: inactive: 97.5%
